In patent US20110008436A1 (published 2011):
Results are given in words; binding and its absence hold for the method and conditions named. Some entries that bind do so weakly or less than the wild type.

Protein sequences, listed by entry. Tags and fused reporters are not part of them. Lines headed by an entry give the natural chain unless they say otherwise; changes in a name come on top.
UniProt P05790: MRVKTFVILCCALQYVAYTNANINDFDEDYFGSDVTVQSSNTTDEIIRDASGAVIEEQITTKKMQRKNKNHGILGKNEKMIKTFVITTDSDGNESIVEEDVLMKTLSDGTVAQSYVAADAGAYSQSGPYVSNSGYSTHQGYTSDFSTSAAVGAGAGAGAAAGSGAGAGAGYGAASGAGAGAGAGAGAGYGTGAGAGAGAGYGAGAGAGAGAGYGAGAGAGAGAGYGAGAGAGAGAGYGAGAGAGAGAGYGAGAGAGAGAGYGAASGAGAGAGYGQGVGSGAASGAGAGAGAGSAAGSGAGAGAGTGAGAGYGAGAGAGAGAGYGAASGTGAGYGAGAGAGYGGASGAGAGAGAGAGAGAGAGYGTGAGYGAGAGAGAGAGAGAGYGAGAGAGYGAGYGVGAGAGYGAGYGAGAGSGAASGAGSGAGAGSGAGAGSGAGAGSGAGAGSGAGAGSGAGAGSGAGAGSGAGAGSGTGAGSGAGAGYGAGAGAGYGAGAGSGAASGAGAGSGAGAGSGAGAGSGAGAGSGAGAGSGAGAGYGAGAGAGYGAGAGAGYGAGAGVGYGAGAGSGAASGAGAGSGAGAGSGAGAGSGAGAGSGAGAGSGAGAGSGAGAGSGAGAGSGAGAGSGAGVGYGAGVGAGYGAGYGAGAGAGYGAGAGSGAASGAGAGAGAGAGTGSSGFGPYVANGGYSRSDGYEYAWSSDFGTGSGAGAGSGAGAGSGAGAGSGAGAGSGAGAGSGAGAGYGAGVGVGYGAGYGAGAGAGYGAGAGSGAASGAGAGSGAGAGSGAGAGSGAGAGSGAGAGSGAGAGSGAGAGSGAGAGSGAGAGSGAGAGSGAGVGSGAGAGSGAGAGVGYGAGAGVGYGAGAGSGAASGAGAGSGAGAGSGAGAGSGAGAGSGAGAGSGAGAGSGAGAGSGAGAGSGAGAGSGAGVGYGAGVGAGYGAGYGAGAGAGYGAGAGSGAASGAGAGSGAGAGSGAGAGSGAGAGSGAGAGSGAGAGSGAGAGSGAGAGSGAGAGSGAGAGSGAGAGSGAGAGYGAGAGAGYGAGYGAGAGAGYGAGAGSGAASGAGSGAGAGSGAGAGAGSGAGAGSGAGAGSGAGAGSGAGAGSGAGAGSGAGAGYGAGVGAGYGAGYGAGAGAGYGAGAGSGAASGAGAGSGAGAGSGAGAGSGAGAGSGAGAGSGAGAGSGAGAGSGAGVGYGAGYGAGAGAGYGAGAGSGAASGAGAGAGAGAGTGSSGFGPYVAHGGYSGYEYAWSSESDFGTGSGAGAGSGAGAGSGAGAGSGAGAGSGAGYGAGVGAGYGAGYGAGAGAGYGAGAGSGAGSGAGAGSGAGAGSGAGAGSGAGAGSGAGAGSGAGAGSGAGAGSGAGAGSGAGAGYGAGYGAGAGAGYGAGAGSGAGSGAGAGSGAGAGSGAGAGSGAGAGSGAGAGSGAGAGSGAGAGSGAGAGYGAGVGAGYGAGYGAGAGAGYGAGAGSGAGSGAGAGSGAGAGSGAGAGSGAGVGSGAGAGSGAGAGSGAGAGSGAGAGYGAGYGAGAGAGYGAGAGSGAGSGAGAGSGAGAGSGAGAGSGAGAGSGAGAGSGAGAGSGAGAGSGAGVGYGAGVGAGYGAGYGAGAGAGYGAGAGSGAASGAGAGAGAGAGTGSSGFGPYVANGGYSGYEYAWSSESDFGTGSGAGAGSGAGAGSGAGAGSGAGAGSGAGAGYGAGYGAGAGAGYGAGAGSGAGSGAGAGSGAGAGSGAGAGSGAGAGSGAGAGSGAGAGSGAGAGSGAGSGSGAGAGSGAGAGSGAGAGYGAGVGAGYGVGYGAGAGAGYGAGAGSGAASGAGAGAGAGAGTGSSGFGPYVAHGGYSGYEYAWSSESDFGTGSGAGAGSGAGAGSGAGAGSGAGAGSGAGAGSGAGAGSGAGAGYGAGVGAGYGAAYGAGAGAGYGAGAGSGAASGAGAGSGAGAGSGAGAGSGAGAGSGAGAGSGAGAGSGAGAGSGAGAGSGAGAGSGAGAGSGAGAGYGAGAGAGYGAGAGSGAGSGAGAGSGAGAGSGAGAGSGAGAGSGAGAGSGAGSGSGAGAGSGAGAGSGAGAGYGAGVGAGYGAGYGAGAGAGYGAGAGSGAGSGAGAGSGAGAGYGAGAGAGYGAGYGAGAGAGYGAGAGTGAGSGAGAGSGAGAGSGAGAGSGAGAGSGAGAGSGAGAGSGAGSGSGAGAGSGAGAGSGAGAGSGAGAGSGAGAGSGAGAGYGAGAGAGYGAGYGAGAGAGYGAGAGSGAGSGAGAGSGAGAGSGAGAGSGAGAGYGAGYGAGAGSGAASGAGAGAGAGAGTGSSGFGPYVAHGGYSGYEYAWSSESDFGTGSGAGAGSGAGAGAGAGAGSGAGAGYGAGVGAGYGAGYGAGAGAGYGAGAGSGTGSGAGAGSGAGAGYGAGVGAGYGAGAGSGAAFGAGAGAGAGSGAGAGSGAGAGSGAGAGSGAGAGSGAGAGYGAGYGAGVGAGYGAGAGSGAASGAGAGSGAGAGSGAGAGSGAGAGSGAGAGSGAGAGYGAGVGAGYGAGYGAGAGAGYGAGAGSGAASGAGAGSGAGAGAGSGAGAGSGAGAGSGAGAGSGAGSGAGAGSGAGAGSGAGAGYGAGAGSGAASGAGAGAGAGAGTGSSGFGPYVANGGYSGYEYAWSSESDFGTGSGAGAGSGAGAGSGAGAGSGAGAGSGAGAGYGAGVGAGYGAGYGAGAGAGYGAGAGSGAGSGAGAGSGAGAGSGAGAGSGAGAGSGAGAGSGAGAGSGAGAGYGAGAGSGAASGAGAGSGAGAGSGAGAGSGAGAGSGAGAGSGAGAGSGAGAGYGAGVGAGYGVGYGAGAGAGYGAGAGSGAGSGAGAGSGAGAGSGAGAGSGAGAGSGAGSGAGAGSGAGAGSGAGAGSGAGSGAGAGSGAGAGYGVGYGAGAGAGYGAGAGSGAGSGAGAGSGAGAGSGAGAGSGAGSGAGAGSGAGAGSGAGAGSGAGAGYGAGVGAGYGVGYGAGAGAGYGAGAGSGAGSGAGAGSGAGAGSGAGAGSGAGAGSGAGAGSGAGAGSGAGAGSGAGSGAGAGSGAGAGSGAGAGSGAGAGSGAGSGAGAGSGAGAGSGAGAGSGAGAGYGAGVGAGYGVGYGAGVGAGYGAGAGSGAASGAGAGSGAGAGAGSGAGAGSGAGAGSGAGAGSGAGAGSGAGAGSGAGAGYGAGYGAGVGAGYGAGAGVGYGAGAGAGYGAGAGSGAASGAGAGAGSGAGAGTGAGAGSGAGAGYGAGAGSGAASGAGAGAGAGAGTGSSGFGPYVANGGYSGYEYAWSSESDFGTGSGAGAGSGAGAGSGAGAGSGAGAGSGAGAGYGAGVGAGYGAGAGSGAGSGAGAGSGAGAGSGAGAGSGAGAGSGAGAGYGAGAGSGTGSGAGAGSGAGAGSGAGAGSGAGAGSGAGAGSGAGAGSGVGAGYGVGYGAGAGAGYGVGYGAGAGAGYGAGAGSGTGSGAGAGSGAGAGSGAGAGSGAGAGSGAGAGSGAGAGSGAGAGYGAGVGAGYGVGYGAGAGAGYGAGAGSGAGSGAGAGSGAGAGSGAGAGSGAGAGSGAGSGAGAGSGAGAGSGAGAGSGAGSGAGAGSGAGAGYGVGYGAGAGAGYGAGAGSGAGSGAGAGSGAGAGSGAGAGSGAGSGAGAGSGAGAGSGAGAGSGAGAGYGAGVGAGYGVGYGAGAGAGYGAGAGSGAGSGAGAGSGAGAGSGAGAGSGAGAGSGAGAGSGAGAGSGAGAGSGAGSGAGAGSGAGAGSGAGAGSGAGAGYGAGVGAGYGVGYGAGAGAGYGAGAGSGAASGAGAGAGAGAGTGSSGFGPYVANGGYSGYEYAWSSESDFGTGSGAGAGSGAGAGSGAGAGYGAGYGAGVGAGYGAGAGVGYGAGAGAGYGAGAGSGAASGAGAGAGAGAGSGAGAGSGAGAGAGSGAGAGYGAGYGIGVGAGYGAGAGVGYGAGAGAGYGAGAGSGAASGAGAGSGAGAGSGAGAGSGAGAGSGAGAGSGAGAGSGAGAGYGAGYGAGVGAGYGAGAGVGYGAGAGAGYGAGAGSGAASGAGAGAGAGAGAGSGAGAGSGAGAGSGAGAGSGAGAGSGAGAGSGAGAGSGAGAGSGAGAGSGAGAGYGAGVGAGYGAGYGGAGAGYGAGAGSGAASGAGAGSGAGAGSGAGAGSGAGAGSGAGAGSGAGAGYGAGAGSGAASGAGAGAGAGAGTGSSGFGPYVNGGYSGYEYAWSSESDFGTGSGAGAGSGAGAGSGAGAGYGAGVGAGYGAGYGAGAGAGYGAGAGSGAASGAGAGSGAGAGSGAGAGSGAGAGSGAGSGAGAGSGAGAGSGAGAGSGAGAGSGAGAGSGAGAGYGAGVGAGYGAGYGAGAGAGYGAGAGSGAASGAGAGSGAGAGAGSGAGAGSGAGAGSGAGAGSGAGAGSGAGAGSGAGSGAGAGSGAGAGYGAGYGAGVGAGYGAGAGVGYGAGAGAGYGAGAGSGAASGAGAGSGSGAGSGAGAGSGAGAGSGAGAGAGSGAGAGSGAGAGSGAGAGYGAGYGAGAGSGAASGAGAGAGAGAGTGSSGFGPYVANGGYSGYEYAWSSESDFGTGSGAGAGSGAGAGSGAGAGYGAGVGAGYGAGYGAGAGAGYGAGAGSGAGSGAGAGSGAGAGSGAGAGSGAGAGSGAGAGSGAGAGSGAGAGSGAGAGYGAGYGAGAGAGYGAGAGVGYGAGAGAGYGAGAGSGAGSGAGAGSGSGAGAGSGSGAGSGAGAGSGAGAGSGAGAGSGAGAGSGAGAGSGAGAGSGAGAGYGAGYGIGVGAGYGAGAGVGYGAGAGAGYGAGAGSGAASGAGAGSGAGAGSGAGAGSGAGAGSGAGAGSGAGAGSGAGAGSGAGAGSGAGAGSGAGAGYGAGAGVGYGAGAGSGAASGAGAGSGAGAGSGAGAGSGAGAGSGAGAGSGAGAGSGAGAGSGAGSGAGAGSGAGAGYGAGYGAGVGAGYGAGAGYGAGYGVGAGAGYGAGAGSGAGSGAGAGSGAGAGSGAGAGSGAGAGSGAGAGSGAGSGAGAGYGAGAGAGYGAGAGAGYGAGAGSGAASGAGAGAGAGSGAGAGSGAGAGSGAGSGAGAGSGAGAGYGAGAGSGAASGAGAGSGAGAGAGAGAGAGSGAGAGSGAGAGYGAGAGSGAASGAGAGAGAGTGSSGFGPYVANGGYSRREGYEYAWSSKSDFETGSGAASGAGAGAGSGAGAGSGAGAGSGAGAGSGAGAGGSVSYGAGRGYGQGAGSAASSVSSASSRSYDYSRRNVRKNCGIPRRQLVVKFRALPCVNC
UniProt P21828: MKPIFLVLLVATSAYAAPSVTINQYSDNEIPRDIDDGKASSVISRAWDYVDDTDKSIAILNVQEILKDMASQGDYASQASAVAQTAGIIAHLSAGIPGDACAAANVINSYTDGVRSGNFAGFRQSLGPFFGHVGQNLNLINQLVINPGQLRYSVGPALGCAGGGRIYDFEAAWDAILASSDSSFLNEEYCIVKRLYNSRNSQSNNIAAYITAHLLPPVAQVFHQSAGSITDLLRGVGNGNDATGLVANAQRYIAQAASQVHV

Key:
[1] = target: T1, Substantially sericin-depleted silk fibroin from Bombyx mori (dissolved in 9.3 M LiBr, dialysed, then gelled or precipitated) (Bombyx mori) (UniProt P05790+P21828); assay: HPLC of 23RGD in silk precipitates
[2] = target: T1, Substantially sericin-depleted silk fibroin from Bombyx mori (dissolved in 9.3 M LiBr, dialysed, then gelled or precipitated) (Bombyx mori); assay: HPLC of 23RGD in silk precipitates (FIG. 22)
[3] = target: T1, Substantially sericin-depleted silk fibroin from Bombyx mori (dissolved in 9.3 M LiBr, dialysed, then gelled or precipitated) (Bombyx mori); assay: HPLC of rinse buffers and of the gel extract
[4] = target: T1, Substantially sericin-depleted silk fibroin from Bombyx mori (dissolved in 9.3 M LiBr, dialysed, then gelled or precipitated) (Bombyx mori); assay: Precipitate seen on adding the 23RGD-ethanol accelerant to silk solution
[5] = target: T1, Substantially sericin-depleted silk fibroin from Bombyx mori (dissolved in 9.3 M LiBr, dialysed, then gelled or precipitated) (Bombyx mori); assay: HPLC of gel made with a 3:1 23RGD:silk enhancer, rinsed several times in water over several days

- binding [1]: binds
- binding [2]: binds
- binding [3]: binds
- binding [4]: binds
- binding [5]: binds
B1: 23RGD peptide (amphiphilic peptide …4SRL6R-NH2) (peptide)
peptide: GRGDIPASSKGGGGSRLLLLLLR
modifications: C-terminal amide (-NH2) as printed
